Test results: the supplement of paper PMC7661543
Differences between knockout arms are mostly noise. Where a SMILES comes first, the peptide text is derived from it. The star is where a group is joined. Cbz = O=C(OCc1ccccc1)*

Test system: MDA-MB-231
Experiment: relative cell number vs DMSO control (72 h) (% of DMSO); higher = less growth inhibition (more cells)
Experimental: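 QMAP-Seq: a pool of 5 breast cancer cell lines (ZR-75-1, SKBR3, HCC-38, MDA-MB-231, BT-20), each carrying 12 doxycycline-inducible Cas9 sgRNA perturbations (11 knockouts plus non-targeting sgNT), was treated with compounds for 72 h at four 10-fold doses (10 nM-10 uM or 1 nM-1 uM range). Barcodes were amplified and sequenced, and cell number was interpolated from 293T spike-in standard curves. The result is expressed as % of the median of DMSO wells. Two biological replicates.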

CC(C)n1cnc2c(NCCc3ccc(O)cc3)nc(-c3csc4ccccc34)nc21 [StemRegenin1]
Conditions	relative cell number
sgRNA knockout: sgATF3, 10 nM	104
sgRNA knockout: sgATF3, 100 nM	99.2
sgRNA knockout: sgATF3, 1000 nM	124
sgRNA knockout: sgATF3, 10000 nM	70.9
sgRNA knockout: sgATF4, 10 nM	97.3
sgRNA knockout: sgATF4, 100 nM	135
sgRNA knockout: sgATF4, 1000 nM	102
sgRNA knockout: sgATF4, 10000 nM	69.1
sgRNA knockout: sgATF6, 10 nM	78.6
sgRNA knockout: sgATF6, 100 nM	135
sgRNA knockout: sgATF6, 1000 nM	93.4
sgRNA knockout: sgATF6, 10000 nM	76.1
sgRNA knockout: sgATG7, 10 nM	107
sgRNA knockout: sgATG7, 100 nM	124
sgRNA knockout: sgATG7, 1000 nM	109
sgRNA knockout: sgATG7, 10000 nM	64.7
sgRNA knockout: sgERN1, 10 nM	93.4
sgRNA knockout: sgERN1, 100 nM	107
sgRNA knockout: sgERN1, 1000 nM	99.9
sgRNA knockout: sgERN1, 10000 nM	56.1
sgRNA knockout: sgHSF1, 10 nM	92.5
sgRNA knockout: sgHSF1, 100 nM	89.7
sgRNA knockout: sgHSF1, 1000 nM	115
sgRNA knockout: sgHSF1, 10000 nM	59.8
sgRNA knockout: sgHSF2, 10 nM	93.4
sgRNA knockout: sgHSF2, 100 nM	107
sgRNA knockout: sgHSF2, 1000 nM	114
sgRNA knockout: sgHSF2, 10000 nM	59.2
sgRNA knockout: sgKEAP1, 10 nM	110
sgRNA knockout: sgKEAP1, 100 nM	116
sgRNA knockout: sgKEAP1, 1000 nM	105
sgRNA knockout: sgKEAP1, 10000 nM	55.9
sgRNA knockout: sgNFE2L2, 10 nM	98.5
sgRNA knockout: sgNFE2L2, 100 nM	97.6
sgRNA knockout: sgNFE2L2, 1000 nM	104
sgRNA knockout: sgNFE2L2, 10000 nM	74.4
sgRNA knockout: sgSLC35F2, 10 nM	117
sgRNA knockout: sgSLC35F2, 100 nM	127
sgRNA knockout: sgSLC35F2, 1000 nM	113
sgRNA knockout: sgSLC35F2, 10000 nM	67.9
sgRNA knockout: sgXBP1, 10 nM	104
sgRNA knockout: sgXBP1, 100 nM	104
sgRNA knockout: sgXBP1, 1000 nM	104
sgRNA knockout: sgXBP1, 10000 nM	68.5

CC(C)C[C@@H](C=O)NC(=O)[C@H](CC(C)C)NC(=O)[C@H](CC(C)C)NC(=O)OCc1ccccc1 [MG132] (Cbz-Leu-Leu-Leu-aldehyde)
Conditions	relative cell number
sgRNA knockout: sgATF3, 10 nM	96.5
sgRNA knockout: sgATF3, 100 nM	89.8
sgRNA knockout: sgATF3, 1000 nM	10.9
sgRNA knockout: sgATF3, 10000 nM	9.37
sgRNA knockout: sgATF4, 10 nM	97.8
sgRNA knockout: sgATF4, 100 nM	92.6
sgRNA knockout: sgATF4, 1000 nM	7.49
sgRNA knockout: sgATF4, 10000 nM	11.5
sgRNA knockout: sgATF6, 10 nM	86.5
sgRNA knockout: sgATF6, 100 nM	103
sgRNA knockout: sgATF6, 1000 nM	11.5
sgRNA knockout: sgATF6, 10000 nM	11
sgRNA knockout: sgATG7, 10 nM	87.5
sgRNA knockout: sgATG7, 100 nM	94.4
sgRNA knockout: sgATG7, 1000 nM	8.15
sgRNA knockout: sgATG7, 10000 nM	8.71
sgRNA knockout: sgERN1, 10 nM	128
sgRNA knockout: sgERN1, 100 nM	97.6
sgRNA knockout: sgERN1, 1000 nM	7.66
sgRNA knockout: sgERN1, 10000 nM	5.29
sgRNA knockout: sgHSF1, 10 nM	96.9
sgRNA knockout: sgHSF1, 100 nM	87.1
sgRNA knockout: sgHSF1, 1000 nM	7.98
sgRNA knockout: sgHSF1, 10000 nM	10.4
sgRNA knockout: sgHSF2, 10 nM	111
sgRNA knockout: sgHSF2, 100 nM	78.6
sgRNA knockout: sgHSF2, 1000 nM	7.64
sgRNA knockout: sgHSF2, 10000 nM	7.72
sgRNA knockout: sgKEAP1, 10 nM	82.7
sgRNA knockout: sgKEAP1, 100 nM	95
sgRNA knockout: sgKEAP1, 1000 nM	11.1
sgRNA knockout: sgKEAP1, 10000 nM	9.24
sgRNA knockout: sgNFE2L2, 10 nM	90.6
sgRNA knockout: sgNFE2L2, 100 nM	102
sgRNA knockout: sgNFE2L2, 1000 nM	9.76
sgRNA knockout: sgNFE2L2, 10000 nM	10.2
sgRNA knockout: sgSLC35F2, 10 nM	97
sgRNA knockout: sgSLC35F2, 100 nM	116
sgRNA knockout: sgSLC35F2, 1000 nM	10.9
sgRNA knockout: sgSLC35F2, 10000 nM	8.08
sgRNA knockout: sgXBP1, 10 nM	108
sgRNA knockout: sgXBP1, 100 nM	95.1
sgRNA knockout: sgXBP1, 1000 nM	8.31
sgRNA knockout: sgXBP1, 10000 nM	9.17

CC(C)(C)c1nc(-c2cccc(NS(=O)(=O)c3c(F)cccc3F)c2F)c(-c2ccnc(N)n2)s1 [Dabrafenib]
Conditions	relative cell number
sgRNA knockout: sgATF3, 10 nM	163
sgRNA knockout: sgATF3, 100 nM	102
sgRNA knockout: sgATF3, 1000 nM	94
sgRNA knockout: sgATF3, 10000 nM	123.2
sgRNA knockout: sgATF4, 10 nM	152
sgRNA knockout: sgATF4, 100 nM	87.9
sgRNA knockout: sgATF4, 1000 nM	86.4
sgRNA knockout: sgATF4, 10000 nM	109
sgRNA knockout: sgATF6, 10 nM	139
sgRNA knockout: sgATF6, 100 nM	133
sgRNA knockout: sgATF6, 1000 nM	110
sgRNA knockout: sgATF6, 10000 nM	95.6
sgRNA knockout: sgATG7, 10 nM	123
sgRNA knockout: sgATG7, 100 nM	115
sgRNA knockout: sgATG7, 1000 nM	104
sgRNA knockout: sgATG7, 10000 nM	104
sgRNA knockout: sgERN1, 10 nM	152
sgRNA knockout: sgERN1, 100 nM	102
sgRNA knockout: sgERN1, 1000 nM	98.9
sgRNA knockout: sgERN1, 10000 nM	90.1
sgRNA knockout: sgHSF1, 10 nM	127
sgRNA knockout: sgHSF1, 100 nM	116
sgRNA knockout: sgHSF1, 1000 nM	100
sgRNA knockout: sgHSF1, 10000 nM	112
sgRNA knockout: sgHSF2, 10 nM	125
sgRNA knockout: sgHSF2, 100 nM	97.3
sgRNA knockout: sgHSF2, 1000 nM	112.8
sgRNA knockout: sgHSF2, 10000 nM	102
sgRNA knockout: sgKEAP1, 10 nM	172
sgRNA knockout: sgKEAP1, 100 nM	122
sgRNA knockout: sgKEAP1, 1000 nM	102
sgRNA knockout: sgKEAP1, 10000 nM	114
sgRNA knockout: sgNFE2L2, 10 nM	132
sgRNA knockout: sgNFE2L2, 100 nM	117
sgRNA knockout: sgNFE2L2, 1000 nM	113
sgRNA knockout: sgNFE2L2, 10000 nM	87.19
sgRNA knockout: sgSLC35F2, 10 nM	125
sgRNA knockout: sgSLC35F2, 100 nM	101
sgRNA knockout: sgSLC35F2, 1000 nM	92.6
sgRNA knockout: sgSLC35F2, 10000 nM	94.5
sgRNA knockout: sgXBP1, 10 nM	140
sgRNA knockout: sgXBP1, 100 nM	126
sgRNA knockout: sgXBP1, 1000 nM	122
sgRNA knockout: sgXBP1, 10000 nM	109.66
